From patent US20250206757A1 (GASHERBRUM BIO, INC., priority 2022, published 2025)

Sequences of proteins named here, by UniProt entry; tags and fusion partners are left off. Residues count along the entry.
UniProt P43220, 24-463 limits assumed: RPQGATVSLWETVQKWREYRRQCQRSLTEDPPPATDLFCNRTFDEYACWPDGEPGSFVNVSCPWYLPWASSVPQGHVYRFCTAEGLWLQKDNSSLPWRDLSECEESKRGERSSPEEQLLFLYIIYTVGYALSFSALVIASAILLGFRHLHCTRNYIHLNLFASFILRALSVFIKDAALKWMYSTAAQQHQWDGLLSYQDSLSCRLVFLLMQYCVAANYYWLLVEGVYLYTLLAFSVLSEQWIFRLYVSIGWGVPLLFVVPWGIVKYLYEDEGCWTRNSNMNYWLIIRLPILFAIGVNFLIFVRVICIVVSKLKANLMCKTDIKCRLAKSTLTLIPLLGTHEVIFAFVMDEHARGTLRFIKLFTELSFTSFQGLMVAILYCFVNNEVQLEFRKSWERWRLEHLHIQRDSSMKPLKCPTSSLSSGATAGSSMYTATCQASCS

Molecular target: GLP-1 Receptor (Homo sapiens, UniProt P43220)
Assay: GLP-1R agonist cAMP stimulation assay (HEK293/GLP1R/CRE-LUC cells, HTRF cAMP dynamic 2 kit)
Conditions: read-out: Activity (EC50, GLP-1R agonist cAMP stimulation); HEK293/CRE-Luc cell line stably expressing the GLP-1 Receptor; 30 min incubation at 37° C.
Method: Activation of GLP-1 receptor is known to stimulate cyclic AMP (cAMP) production in cells which indicates primary coupling to the Gas subunit of the G protein heterotrimeric complex.
To optimize functional activity directed toward Gas coupling, a HEK293/CRE-Luc cell line developed by HDB stably expressing the GLP-1 Receptor was used. 200× concentration of compound working solutions were prepared (Agilent Technologies Bravo) with 1/2 log serial dilution in 384-well Echo LDV plate (Labcyte, Cat #LP-0200). 50 nL/well 200× concentration of compound working solutions were moved to 384-well white low volume plate (Greiner, Cat #784075) using Labcyte ECHO550. 1×10^5 cells/mL HEK293/GLP1R/CRE-LUC (HD Biosciences) cell suspensions prepared with assay buffer [DPBS containing 0.5 mM IBMX (Sigma, Cat #15879) and 0.10% BSA (GENVIEW, Cat #FA016-100g)], 10 μL cell suspensions were added to each well of previous generated assay plate which already contains 50 nL compound at 200× concentration using ThermoFisher Multidrop Combi (1000 cells/well). Seal the plate and incubate at 37° C. with 5% CO2 for 30 min.
After incubation the cAMP assay signal was generated using cAMP dynamic 2 Kit (Cisbio). 5 μL cAMP-d2 working solution was added to each well, followed with 5 μL Anti-cAMP antibody-cryptate working solution added to each well using ThermoFisher Multidrop Combi. Incubate at room temperature for 1 hour protected from light. Read the fluorescence at 665 and 615 nm with Reader PerkinElmer EnVision.

| EC50 [nM] | Structure (SMILES) |
| --- | --- |
| < 1 | O=c1[nH]c(-c2cc3nc(CN4CCc5cc(C(F)(F)F)c(OCc6ccc(Cl)cc6F)nc5C4)n(C[C@@H]4CCO4)c3cn2)no1 |
| < 1 | Fc1cc(Cl)ccc1COc1nc2c(cc1C(F)(F)F)CCN(Cc1nc3cc(-c4nnc(C(F)F)[nH]4)ncc3n1C[C@@H]1CCO1)C2 |
| < 1 | N#Cc1nnc(-c2cc3nc(CN4CCc5cc(C(F)(F)F)c(OCc6ccc(Cl)cc6)nc5C4)n(C[C@@H]4CCO4)c3cn2)[nH]1 |
| 1 to 300 | O=c1[nH]cccc1-c1cc2nc(CN3CCc4cc(C(F)(F)F)c(OCc5ccc(Cl)cc5F)nc4C3)n(C[C@@H]3CCO3)c2cn1 |

Structures were worked out from names or drawings and are uncertain.
